Consider one substance from publication PMC5396162 (Advanced Science, 2017).

Strings that start with PEPTIDE1 are HELM notation: dots part the residues, brackets hold end groups and non-standard residues.

The nature of the data set: peptide made by a vendor. The conditions noted are these: whole synthesis, analytical RP-HPLC.

With “PEPTIDE1{H.A.V.R.N.G.R.R.G.D.G.G.A.V.P.I.A.Q.K}$$$$V2.0”, the “final HPLC purity” value is given as not below 95% and the “final purity (method not given)” value turned out to be 99.5%.
